Assay results as given in paper PMC8152475 (Biomedicines, 2021).
Read-outs that look alike come from different tables or passages of the source. No constants are given. Whether binding was seen depends on the method and setting. In cells and extracts the contact can be indirect. Some results given as binding are weak or reduced against the parent protein; the word gives no strength. For part of these data: Tags and fused reporters may be left off the sequences shown.

Amino acid sequences for entries named in this document (tags omitted). Residues count along the entry.
UniProt P14598: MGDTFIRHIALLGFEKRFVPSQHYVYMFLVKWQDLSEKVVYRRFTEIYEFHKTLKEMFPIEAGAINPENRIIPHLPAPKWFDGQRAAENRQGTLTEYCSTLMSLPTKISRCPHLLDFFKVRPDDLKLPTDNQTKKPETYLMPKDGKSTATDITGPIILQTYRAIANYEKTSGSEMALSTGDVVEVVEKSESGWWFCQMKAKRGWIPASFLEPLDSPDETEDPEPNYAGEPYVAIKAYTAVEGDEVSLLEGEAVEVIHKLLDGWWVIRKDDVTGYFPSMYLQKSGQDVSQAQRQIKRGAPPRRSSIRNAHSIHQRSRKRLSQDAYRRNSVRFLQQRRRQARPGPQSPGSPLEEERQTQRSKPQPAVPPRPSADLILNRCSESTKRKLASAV
UniProt P9WIN9, residues 24-228: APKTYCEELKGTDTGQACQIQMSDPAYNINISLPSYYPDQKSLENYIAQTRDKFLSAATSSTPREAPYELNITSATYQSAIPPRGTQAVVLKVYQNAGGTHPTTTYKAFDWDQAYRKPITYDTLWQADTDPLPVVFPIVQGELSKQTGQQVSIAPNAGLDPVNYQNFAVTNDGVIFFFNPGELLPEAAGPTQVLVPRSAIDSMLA
UniProt P19878: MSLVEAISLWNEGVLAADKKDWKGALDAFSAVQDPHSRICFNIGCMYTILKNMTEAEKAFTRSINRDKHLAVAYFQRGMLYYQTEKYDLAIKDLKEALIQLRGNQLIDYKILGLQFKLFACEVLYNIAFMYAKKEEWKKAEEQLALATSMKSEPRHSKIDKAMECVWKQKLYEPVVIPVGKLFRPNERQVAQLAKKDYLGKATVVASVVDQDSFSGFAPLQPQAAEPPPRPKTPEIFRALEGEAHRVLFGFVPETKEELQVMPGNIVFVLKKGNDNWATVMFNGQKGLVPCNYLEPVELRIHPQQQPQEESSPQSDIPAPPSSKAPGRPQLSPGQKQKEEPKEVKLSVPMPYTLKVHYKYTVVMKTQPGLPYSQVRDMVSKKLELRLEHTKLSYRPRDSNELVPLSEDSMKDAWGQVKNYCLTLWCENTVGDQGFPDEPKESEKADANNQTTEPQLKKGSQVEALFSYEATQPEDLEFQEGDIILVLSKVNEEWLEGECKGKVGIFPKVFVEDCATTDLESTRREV

Legend:
[1] = target: T1, GST-HK2 (UniProt P52789); test: pull-down
T1 sequence: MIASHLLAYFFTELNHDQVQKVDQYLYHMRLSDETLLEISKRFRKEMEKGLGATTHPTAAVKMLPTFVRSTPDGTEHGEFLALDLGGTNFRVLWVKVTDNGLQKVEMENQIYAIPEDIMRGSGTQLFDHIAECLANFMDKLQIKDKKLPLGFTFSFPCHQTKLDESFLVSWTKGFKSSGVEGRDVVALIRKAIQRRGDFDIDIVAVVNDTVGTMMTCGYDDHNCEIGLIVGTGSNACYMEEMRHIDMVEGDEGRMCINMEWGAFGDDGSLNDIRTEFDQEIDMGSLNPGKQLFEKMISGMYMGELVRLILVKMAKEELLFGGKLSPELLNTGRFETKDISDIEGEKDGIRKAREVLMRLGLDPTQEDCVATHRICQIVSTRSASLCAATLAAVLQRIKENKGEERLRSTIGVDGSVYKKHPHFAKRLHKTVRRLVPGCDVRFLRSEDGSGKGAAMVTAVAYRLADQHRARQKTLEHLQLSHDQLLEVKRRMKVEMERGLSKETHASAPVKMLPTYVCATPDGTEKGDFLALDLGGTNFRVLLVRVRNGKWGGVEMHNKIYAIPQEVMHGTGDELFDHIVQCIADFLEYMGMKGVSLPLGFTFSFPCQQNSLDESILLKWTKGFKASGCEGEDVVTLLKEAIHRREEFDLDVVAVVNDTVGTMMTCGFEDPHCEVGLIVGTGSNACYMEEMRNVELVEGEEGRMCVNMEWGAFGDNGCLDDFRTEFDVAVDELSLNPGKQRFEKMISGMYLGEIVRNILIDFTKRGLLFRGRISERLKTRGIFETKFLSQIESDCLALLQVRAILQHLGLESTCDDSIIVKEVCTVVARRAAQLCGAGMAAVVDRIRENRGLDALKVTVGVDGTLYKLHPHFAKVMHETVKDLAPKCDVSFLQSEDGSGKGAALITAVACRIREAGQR

[2] = target: T2, GST-TBK1 (UniProt Q9UHD2); test: pull-down
T2 sequence: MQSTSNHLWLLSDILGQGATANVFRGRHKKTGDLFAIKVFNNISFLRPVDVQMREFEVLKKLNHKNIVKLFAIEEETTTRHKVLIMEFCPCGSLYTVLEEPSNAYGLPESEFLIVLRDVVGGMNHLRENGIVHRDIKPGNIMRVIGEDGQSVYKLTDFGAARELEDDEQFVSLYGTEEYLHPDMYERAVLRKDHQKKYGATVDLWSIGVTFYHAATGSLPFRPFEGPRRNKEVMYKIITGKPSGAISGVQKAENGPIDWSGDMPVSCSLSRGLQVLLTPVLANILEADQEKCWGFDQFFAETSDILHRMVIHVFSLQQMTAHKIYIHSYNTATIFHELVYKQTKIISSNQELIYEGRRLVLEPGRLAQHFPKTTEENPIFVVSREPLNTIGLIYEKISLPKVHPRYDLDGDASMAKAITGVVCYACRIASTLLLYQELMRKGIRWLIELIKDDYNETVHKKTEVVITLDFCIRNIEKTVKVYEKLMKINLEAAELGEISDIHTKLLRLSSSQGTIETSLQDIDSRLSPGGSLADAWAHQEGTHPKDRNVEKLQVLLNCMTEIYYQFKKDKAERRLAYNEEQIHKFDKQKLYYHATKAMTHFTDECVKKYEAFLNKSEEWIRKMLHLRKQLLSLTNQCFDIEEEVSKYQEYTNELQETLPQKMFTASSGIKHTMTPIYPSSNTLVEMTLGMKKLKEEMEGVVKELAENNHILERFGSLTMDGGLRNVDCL

[3] = target: V5-p47phox (UniProt P14598); test: co-IP
[4] = target: Neutrophil cytosol factor 1 (p47phox), endogenous in THP-1 (human (endogenous in THP-1)) (UniProt P14598); test: co-IP
[5] = target: V5-p47phox (UniProt P14598); test: co-IP; remark: listed apart in the source
[6] = target: Neutrophil cytosol factor 1 (p47phox), endogenous in THP-1 (human (endogenous in THP-1)) (UniProt P14598); test: co-IP; remark: listed apart in the source
[7] = target: GST-p47phox (UniProt P14598); test: pull-down
[8] = target: T3, Flag-TBK1 (UniProt Q9UHD2); test: co-IP
T3 sequence: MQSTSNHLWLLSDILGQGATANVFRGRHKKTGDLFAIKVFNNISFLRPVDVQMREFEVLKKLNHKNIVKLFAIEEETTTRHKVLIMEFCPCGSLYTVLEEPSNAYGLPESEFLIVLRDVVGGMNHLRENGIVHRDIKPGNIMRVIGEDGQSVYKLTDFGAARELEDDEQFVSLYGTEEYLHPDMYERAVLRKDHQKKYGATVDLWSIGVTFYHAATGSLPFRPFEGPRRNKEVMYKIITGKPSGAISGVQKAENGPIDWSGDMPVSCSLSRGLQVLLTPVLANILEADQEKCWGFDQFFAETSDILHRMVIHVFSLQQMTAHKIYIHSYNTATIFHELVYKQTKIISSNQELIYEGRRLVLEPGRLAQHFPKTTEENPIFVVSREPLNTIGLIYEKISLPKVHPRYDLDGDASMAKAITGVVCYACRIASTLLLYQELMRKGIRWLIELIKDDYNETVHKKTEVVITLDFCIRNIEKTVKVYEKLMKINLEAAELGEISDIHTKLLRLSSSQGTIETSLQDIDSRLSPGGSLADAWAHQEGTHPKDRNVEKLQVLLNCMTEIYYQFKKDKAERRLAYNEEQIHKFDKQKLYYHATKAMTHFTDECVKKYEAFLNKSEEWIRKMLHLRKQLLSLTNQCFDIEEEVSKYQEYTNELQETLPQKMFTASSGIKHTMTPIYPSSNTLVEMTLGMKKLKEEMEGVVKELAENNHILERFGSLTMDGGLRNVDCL

Myc-MPT64 (from UniProt P9WIN9 24-228)
binding [1]: binds
binding [2]: binds

Flag-p67phox (from UniProt P19878 1-526)
binding [3]: binds

p67phox, endogenous in THP-1 (from UniProt P19878 1-526)
binding [4]: binds

B1: Flag-p22phox (protein, UniProt P13498 1-195)
chain: MGQIEWAMWANEQALASGLILITGGIVATAGRFTQWYFGAYSIVAGVFVCLLEYPRGKRKKGSTMERWGQKYMTAVVKLFGPFTRNYYVRAVLHLLLSVPAGFLLATILGTACLAIASGIYLLAAVRGEQWTPIEPKPRERPQIGGTIKQPPSNPPPRPPAEARKKPSEEEAAVAAGGPPGGPQVNPIPVTDEVV
binding [5]: binds

B2: p22phox, endogenous in THP-1 (protein, UniProt P13498 1-195)
chain: MGQIEWAMWANEQALASGLILITGGIVATAGRFTQWYFGAYSIVAGVFVCLLEYPRGKRKKGSTMERWGQKYMTAVVKLFGPFTRNYYVRAVLHLLLSVPAGFLLATILGTACLAIASGIYLLAAVRGEQWTPIEPKPRERPQIGGTIKQPPSNPPPRPPAEARKKPSEEEAAVAAGGPPGGPQVNPIPVTDEVV
binding [6]: binds

B3: Myc-MPT63 (protein, UniProt P9WIP1 30-159)
chain: AYPITGKLGSELTMTDTVGQVVLGWKVSDLKSSTAVIPGYPVAGQVWEATATVNAIRGSVTPAVSQFNARTADGINYRVLWQAAGPDTISGATIPQGEQSTGKIYFDVTGPSPTIVAMNNGMEDLLIWEP
binding [7]: binds
binding [2]: binds

B4: V5-IRF3 (protein, UniProt Q14653 1-427)
chain: MGTPKPRILPWLVSQLDLGQLEGVAWVNKSRTRFRIPWKHGLRQDAQQEDFGIFQAWAEATGAYVPGRDKPDLPTWKRNFRSALNRKEGLRLAEDRSKDPHDPHKIYEFVNSGVGDFSQPDTSPDTNGGGSTSDTQEDILDELLGNMVLAPLPDPGPPSLAVAPEPCPQPLRSPSLDNPTPFPNLGPSENPLKRLLVPGEEWEFEVTAFYRGRQVFQQTISCPEGLRLVGSEVGDRTLPGWPVTLPDPGMSLTDRGVMSYVRHVLSCLGGGLALWRAGQWLWAQRLGHCHTYWAVSEELLPNSGHGPDGEVPKDKEGGVFDLGPFIVDLITFTEGSGRSPRYALWFCVGESWPQDQPWTKRLVMVKVVPTCLRALVEMARVGGASSLENTVDLHISNSHPLSLTSDQYKAYLQDLVEGMDFQGPGES
binding [8]: binds
